This assay deals with Hypoxia-Inducible Factor 1α (mouse (endogenous in J774)) (UniProt Q61221). The assay is described as follows: co-IP; HIF1α immunoprecipitated (anti-HIF1α, Protein A-Sepharose, 4 °C overnight; lysis buffer 1% NP-40, 0.1% SDS, 0.1% deoxycholic acid, 50 mM Tris pH 7.4) from J774 cells under normoxia (21% O2) or hypoxia (2% O2, 1 h); immunoblot for GRP78, IRE1α, PERK, ATF6; also after 1 h pre-treatment with 4µ8c (100 µM) or KIRA6 (1 µM).

Protein sequences, listed by entry. Tags and fused reporters are not part of them. Residues count along the entry.
UniProt Q61221: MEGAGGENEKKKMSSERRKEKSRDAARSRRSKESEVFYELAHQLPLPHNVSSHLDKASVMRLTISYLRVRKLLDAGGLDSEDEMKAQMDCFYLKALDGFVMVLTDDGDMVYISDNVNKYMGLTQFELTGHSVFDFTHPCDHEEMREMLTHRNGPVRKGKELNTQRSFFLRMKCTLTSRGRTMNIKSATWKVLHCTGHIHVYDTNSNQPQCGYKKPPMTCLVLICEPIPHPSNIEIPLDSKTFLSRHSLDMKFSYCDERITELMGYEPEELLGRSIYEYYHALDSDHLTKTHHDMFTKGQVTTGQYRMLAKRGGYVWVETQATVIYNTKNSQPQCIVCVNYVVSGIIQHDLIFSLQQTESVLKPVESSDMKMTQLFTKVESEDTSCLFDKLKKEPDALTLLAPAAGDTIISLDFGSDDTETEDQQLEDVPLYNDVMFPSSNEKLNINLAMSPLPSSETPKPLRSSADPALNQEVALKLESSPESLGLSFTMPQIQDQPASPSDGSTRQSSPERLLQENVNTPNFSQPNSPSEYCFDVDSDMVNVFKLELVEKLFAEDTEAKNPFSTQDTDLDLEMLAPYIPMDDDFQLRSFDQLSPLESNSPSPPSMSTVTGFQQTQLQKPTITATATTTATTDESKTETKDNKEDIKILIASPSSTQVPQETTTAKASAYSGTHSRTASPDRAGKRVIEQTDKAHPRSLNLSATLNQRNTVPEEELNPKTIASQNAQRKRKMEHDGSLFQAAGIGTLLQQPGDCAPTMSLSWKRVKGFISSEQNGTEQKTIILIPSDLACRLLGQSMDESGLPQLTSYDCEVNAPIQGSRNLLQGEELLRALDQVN
UniProt Q9EQY0, residues 21-977: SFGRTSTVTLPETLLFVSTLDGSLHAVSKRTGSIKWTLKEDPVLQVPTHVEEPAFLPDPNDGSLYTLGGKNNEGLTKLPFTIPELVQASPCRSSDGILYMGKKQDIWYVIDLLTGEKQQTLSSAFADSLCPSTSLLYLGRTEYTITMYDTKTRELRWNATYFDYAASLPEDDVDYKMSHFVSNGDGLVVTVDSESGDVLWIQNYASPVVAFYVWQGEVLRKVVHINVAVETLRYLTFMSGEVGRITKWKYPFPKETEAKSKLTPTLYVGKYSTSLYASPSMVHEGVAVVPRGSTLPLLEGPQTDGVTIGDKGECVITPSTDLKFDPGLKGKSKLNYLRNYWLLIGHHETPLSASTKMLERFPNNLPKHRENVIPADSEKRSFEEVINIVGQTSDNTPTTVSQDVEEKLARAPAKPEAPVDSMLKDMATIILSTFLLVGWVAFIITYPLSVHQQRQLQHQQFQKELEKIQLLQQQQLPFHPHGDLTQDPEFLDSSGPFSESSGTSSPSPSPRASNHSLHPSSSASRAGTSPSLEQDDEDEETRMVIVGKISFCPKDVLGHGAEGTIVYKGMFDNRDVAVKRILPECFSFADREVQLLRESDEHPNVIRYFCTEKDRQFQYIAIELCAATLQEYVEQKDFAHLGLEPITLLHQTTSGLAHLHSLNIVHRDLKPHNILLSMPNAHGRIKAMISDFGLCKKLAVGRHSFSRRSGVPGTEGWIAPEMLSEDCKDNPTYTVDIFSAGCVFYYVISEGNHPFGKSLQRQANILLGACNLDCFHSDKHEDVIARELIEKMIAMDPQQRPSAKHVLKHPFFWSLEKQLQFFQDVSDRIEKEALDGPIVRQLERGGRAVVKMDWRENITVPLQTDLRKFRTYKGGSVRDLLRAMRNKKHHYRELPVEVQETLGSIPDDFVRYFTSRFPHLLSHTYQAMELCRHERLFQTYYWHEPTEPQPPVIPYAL
UniProt P20029, residues 20-655: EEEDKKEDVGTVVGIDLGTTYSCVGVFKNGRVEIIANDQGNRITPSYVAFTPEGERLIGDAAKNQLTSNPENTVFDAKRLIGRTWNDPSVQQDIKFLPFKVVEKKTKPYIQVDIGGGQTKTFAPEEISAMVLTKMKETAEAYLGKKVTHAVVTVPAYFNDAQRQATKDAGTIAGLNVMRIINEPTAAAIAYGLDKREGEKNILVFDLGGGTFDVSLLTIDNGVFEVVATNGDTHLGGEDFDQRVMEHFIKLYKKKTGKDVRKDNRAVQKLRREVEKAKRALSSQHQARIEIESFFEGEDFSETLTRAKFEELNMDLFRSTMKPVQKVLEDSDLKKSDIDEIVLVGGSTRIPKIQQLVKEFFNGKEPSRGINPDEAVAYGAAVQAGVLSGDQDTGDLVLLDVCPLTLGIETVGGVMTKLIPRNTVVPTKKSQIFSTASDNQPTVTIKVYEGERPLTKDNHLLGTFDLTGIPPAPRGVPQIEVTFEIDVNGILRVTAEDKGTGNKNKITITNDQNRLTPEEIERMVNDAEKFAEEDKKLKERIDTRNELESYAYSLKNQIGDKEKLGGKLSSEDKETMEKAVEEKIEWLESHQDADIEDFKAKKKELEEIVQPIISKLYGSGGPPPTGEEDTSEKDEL

No constants are given. Whether binding was seen depends on the method and setting. In cells and extracts the contact can be indirect. Some results given as binding are weak or reduced against the parent protein; the word gives no strength.

With “inositol-requiring enzyme 1α (from UniProt Q9EQY0 21-977)”, the binding result is “binds”.

Regarding “Glucose-Regulated Protein-78 (from UniProt P20029 20-655)”, the binding entry was “binds”.

(Values after publication PMC10286485.)
